Results are given in words; binding and its absence hold for the method and conditions named.

The experiment has as its target huCD16B (NA1)mat, GPI anchored (human). The experiment is described as follows: flow cytometry, MFI in cell binding to recombinant CHO cells; antigen GPI anchored. (Flow cytometry measures light scatter and fluorescence of single cells or particles in a stream.)

B1: scFv CD16A (CD16-2) (scFv)
scFv: QVQLVQSGAEVKKPGESLKVSCKASGYTFTSYYMHWVRQAPGQGLEWMGAIEPMYGSTSYAQKFQGRVTMTRDTSTSTVYMELSSLRSEDTAVYYCARGSAYYYDFADYWGQGTLVTVSSGGSGGSGGSGGSGGSGGSSYVLTQPSSVSVAPGQTATISCGGHNIGSKNVHWYQQRPGQSPVLVIYQDNKRPSGIPERFSGSNSGNTATLTISGTQAMDEADYYCQVWDNYSVLFGGGTKLTVLAAAGSHHHHHH
notes: also called CD16-2 scFv
Regarding B1, the binding result is reported as “no binding”.

B2: EGFR-1 scFv (scFv)
scFv: QVQLQESGPGLVKPSETLSLTCTVSGGSVSSGSYYWSWIRQPPGKGLEWIGYIYYSGSTNYNPSLKSRVTISVDTSKNQFSLKLSSVTAADTAVYYCARNPISIPAFDIWGQGTMVTVSSGGSGGSGGSGGSGGSGGSQPVLTQPPSVSVAPGKTARITCGGNNIGSKSVHWYQQKPGQAPVLVIYYDSDRPSGIPERFSGSNSGNTATLTISRVEAGDEADYYCQVWDTSSDHVLFGGGTKLTVLAAAGSHHHHHH
notes: also called scFv EGFR (EGFR-1); control scFv
Regarding B2, the binding result is “no binding”.

(Values after US20210169936A1 (AFFIMED, published 2021).)
